# Experimental data reported in patent US4873232A, “Novel use for carbamoyl benzoates” (Syntex, priority 1986, dated 1989).
# At least one read-out could not be matched to a standard name with certainty.
# System: Experimental Allergic Encephalomyelitis in Rat
# Assay: Experimental Allergic Encephalomyelitis in rat
# Format: in vivo, rat (female LEW/Crl BR)
# Details: observed days 12-17
# Text: 3. Experimental allergic encephalomyelitis in the rat. […] A mixture of syngeneic spinal cord homogenate in Freund's Complete Adjuvant injected subcutaneously into the rat induces an […] response directed against the myelin covering the nerves of the central nervous system. […] These symptoms result from attack of immune cells on the nerves with subsequent destruction and loss of ability to transmit the nervous impulses necessary for controlling muscle function. […] This is consistent with the general immuno-suppressive effects of this drug. Corticosteroid treatment also prevents the appearance of paralytic symptoms, but the dose of corticosteroid required is such that the corticosteroid itself causes weight loss greater than that produced by the disease alone. In contrast to their action in Adjuvant-inducted Arthritis in the rat, aspirin-like drugs are completely ineffective in preventing the symptoms and weight loss of experimental allergic encephalomyelitis.
# Experimental Allergic Encephalomyelitis in Rat
# Method: Test for Inhibition of Experimental Allergic Encephalomyelitis Induced in Rats
# Female LEW/Crl BR rats weighing 125-135 g were randomly assigned to treatment groups of ten animals. Experimental allergic encephalomyelitis was induced by injecting into the right hind paw of each animal 0.1 ml of an emulsion containing 15 mg (wet weight) of syngeneic spinal cord tissue, 0.06 ml of Freund's Incomplete Adjuvant (Difco), 0.04 ml of sterile 0.9% saline and 0.2 mg of heat-killed, dried Mycobacterium butyricum (Difco). Test materials prepared as solutions or suspensions in aqueous carboxymethyl cellulose vehicle were administered orally each day for 16 days, starting on the day of injection. Animals were individually identified and weighed on day one, and again on day 17.
# [1] = oral 10 mg/kg daily for 16 days
# [2] = oral 50 mg/kg daily for 16 days
Structure (SMILES),% Animals With Paralysis (oral 2 mg/kg daily for 16 days),% Animals With Paralysis [1],% Animals With Paralysis [2],also measured
"Cc1cccc(N)c1C(=O)O [2-Amino-6-methylbenzoic acid, 2-amino-6-methyl-benzoic acid, reference compound]",70%,90%,100%,
"O=C(Nc1ccccc1C(=O)O)OCc1ccccc1 [2-Benzyloxycarbonyl-aminobenzoic acid, 2-benzyloxycarbonylaminobenzoic acid]",100%,70%,,
"CCOC(=O)Nc1ccccc1C(=O)O [2-Ethoxycarbonyl-aminobenzoic acid, 2-ethoxycarbonylaminobenzoic acid]",50%,70%,50%,
CCOC(=O)Nc1cccc(C)c1C(=O)O [2-Ethoxycarbonylamino-6-methylbenzoic acid],,70%,,% Animals With Paralysis (oral 5 mg/kg daily for 16 days): 40%; % Animals With Paralysis (oral 25 mg/kg daily for 16 days): 80%
"COc1cc(NC(=O)OCc2ccccc2)c(C(=O)O)cc1OC [2-benzyloxycarbonylamino-4,5-dimethoxybenzoic acid]",80%,90%,,
Cc1cccc(NC(=O)OCc2ccccc2)c1C(=O)O [2-benzyloxycarbonylamino-6-methylbenzoic acid],,60%,,
"CCOC(=O)Nc1cc(OC)c(OC)cc1C(=O)O [2-ethoxycarbonylamino-4,5-dimethoxybenzoic acid]",70%,70%,60%,
Cc1cccc(NC(=O)OCC(C)C)c1C(=O)O [2-isobutoxycarbonylamino-6-methylbenzoic acid],,70%,,
"O=C(O)c1ccccc1Nc1cccc(C(F)(F)F)c1 [Flufenamic acid, reference compound]",,,,% Animals With Paralysis (oral 30 mg/kg daily for 16 days): 100%; % Animals With Paralysis (oral 100 mg/kg daily for 16 days): 100%
